According to patent US4624954A, “6,7,8,9-tetrahydro-10-methylpyrido[1,2-a]indol-9-amines and derivatives thereof, useful for the treatment of cognitive impairments” (American Home Products Corporation, priority 1985, dated 1986):

Test: Passive avoidance test: prevention of scopolamine-induced memory impairment in rats
Type: in vivo, male Sprague-Dawley rats
Details: scopolamine alone 2.0 mg/kg s.c. 15 or 30 minutes prior to training

SMILES: CN1[C@@H]2C[C@@H](OC(=O)[C@H](CO)c3ccccc3)C[C@H]1[C@@H]1O[C@@H]12 [scopolamine, reference compound]
- entry into the dark compartment during the retention test (latency): ≤ 50 s
